# According to the supplement of paper PMC7661543:
# ± gives the standard deviation of the averaged measurements. Differences between knockout arms are mostly noise.
# System: BT-20
# Test: relative cell number vs DMSO control (72 h) (% of DMSO); higher = less growth inhibition (more cells)
# Method: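 QMAP-Seq: a pool of 5 breast cancer cell lines (ZR-75-1, SKBR3, HCC-38, MDA-MB-231, BT-20), each carrying 12 doxycycline-inducible Cas9 sgRNA perturbations (11 knockouts plus non-targeting sgNT), was treated with compounds for 72 h at four 10-fold doses (10 nM-10 uM or 1 nM-1 uM range). Barcodes were amplified and sequenced, and cell number was interpolated from 293T spike-in standard curves. The result is expressed as % of the median of DMSO wells. Two biological replicates.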
# [1] = sgRNA knockout: sgATF3, 1000 nM
# [2] = sgRNA knockout: sgATF4, 1000 nM
# [3] = sgRNA knockout: sgATF6, 1000 nM
# [4] = sgRNA knockout: sgATG7, 1000 nM
# [5] = sgRNA knockout: sgERN1, 1000 nM
# [6] = sgRNA knockout: sgHSF1, 1000 nM
# [7] = sgRNA knockout: sgHSF2, 1000 nM
# [8] = sgRNA knockout: sgKEAP1, 100 nM
# [9] = sgRNA knockout: sgKEAP1, 1000 nM
# [10] = sgRNA knockout: sgNFE2L2, 10 nM
# [11] = sgRNA knockout: sgNFE2L2, 100 nM
# [12] = sgRNA knockout: sgNFE2L2, 1000 nM
# [13] = sgRNA knockout: sgSLC35F2, 10 nM
# [14] = sgRNA knockout: sgSLC35F2, 100 nM
# [15] = sgRNA knockout: sgSLC35F2, 1000 nM
# [16] = sgRNA knockout: sgXBP1, 1000 nM
smiles,measurement,setting,value
COc1cc(C(=O)N2CCC(N3CCN(C)CC3)CC2)ccc1Nc1ncc2c(n1)N(C)c1ccccc1C(=O)N2C [LRRK2IN1],relative cell number,"sgRNA knockout: sgATF3, 10 nM",110 ± 22
same,relative cell number,"sgRNA knockout: sgATF3, 100 nM",90.2 ± 1.4
same,relative cell number,[1],86.5 ± 3.7
same,relative cell number,"sgRNA knockout: sgATF3, 10000 nM",41.8 ± 0.46
same,relative cell number,"sgRNA knockout: sgATF4, 10 nM",116 ± 5.2
same,relative cell number,"sgRNA knockout: sgATF4, 100 nM",101 ± 2.7
same,relative cell number,[2],82.5 ± 1.6
same,relative cell number,"sgRNA knockout: sgATF4, 10000 nM",42 ± 1.9
same,relative cell number,"sgRNA knockout: sgATF6, 10 nM",115 ± 1.2
same,relative cell number,"sgRNA knockout: sgATF6, 100 nM",94.1 ± 3.1
same,relative cell number,[3],77.3 ± 4
same,relative cell number,"sgRNA knockout: sgATF6, 10000 nM",37.3 ± 1.9
same,relative cell number,"sgRNA knockout: sgATG7, 10 nM",116 ± 7.9
same,relative cell number,"sgRNA knockout: sgATG7, 100 nM",89.7 ± 21
same,relative cell number,[4],96.2 ± 9.2
same,relative cell number,"sgRNA knockout: sgATG7, 10000 nM",51.5 ± 6.1
same,relative cell number,"sgRNA knockout: sgERN1, 10 nM",125 ± 4.2
same,relative cell number,"sgRNA knockout: sgERN1, 100 nM",97.7 ± 8.3
same,relative cell number,[5],78.9 ± 14
same,relative cell number,"sgRNA knockout: sgERN1, 10000 nM",49.1 ± 5
same,relative cell number,"sgRNA knockout: sgHSF1, 10 nM",109 ± 2
same,relative cell number,"sgRNA knockout: sgHSF1, 100 nM",94.4 ± 15
same,relative cell number,[6],81.8 ± 6.5
same,relative cell number,"sgRNA knockout: sgHSF1, 10000 nM",53.6 ± 1.7
same,relative cell number,"sgRNA knockout: sgHSF2, 10 nM",124 ± 4.7
same,relative cell number,"sgRNA knockout: sgHSF2, 100 nM",103 ± 16
same,relative cell number,[7],85.4 ± 4.8
same,relative cell number,"sgRNA knockout: sgHSF2, 10000 nM",42.1 ± 3.9
same,relative cell number,"sgRNA knockout: sgKEAP1, 10 nM",105.27 ± 0.014
same,relative cell number,[8],93.5 ± 4.9
same,relative cell number,[9],77.23 ± 0.12
same,relative cell number,"sgRNA knockout: sgKEAP1, 10000 nM",48.7 ± 0.54
same,relative cell number,[10],119 ± 8.1
same,relative cell number,[11],83.8 ± 5.7
same,relative cell number,[12],92.7 ± 2.9
same,relative cell number,"sgRNA knockout: sgNFE2L2, 10000 nM",48.6 ± 2.9
same,relative cell number,[13],108 ± 18
same,relative cell number,[14],95.8 ± 2.4
same,relative cell number,[15],72.2 ± 6.2
same,relative cell number,"sgRNA knockout: sgSLC35F2, 10000 nM",46.8 ± 13
same,relative cell number,"sgRNA knockout: sgXBP1, 10 nM",121 ± 5.1
same,relative cell number,"sgRNA knockout: sgXBP1, 100 nM",86.2 ± 17
same,relative cell number,[16],79.845 ± 0.049
same,relative cell number,"sgRNA knockout: sgXBP1, 10000 nM",47.919 ± 0.011
N#Cc1ccc(C(c2ccc(C#N)cc2)n2cncn2)cc1 [Letrozole],relative cell number,"sgRNA knockout: sgATF3, 1 nM",107 ± 11
same,relative cell number,"sgRNA knockout: sgATF3, 10 nM",108 ± 27
same,relative cell number,"sgRNA knockout: sgATF3, 100 nM",94.2 ± 10
same,relative cell number,[1],89.2 ± 6.2
same,relative cell number,"sgRNA knockout: sgATF4, 1 nM",110 ± 2.7
same,relative cell number,"sgRNA knockout: sgATF4, 10 nM",90 ± 28
same,relative cell number,"sgRNA knockout: sgATF4, 100 nM",109 ± 9.9
same,relative cell number,[2],94.2 ± 18
same,relative cell number,"sgRNA knockout: sgATF6, 1 nM",94.8 ± 13
same,relative cell number,"sgRNA knockout: sgATF6, 10 nM",79.1 ± 26
same,relative cell number,"sgRNA knockout: sgATF6, 100 nM",118 ± 14
same,relative cell number,[3],93.2 ± 11
same,relative cell number,"sgRNA knockout: sgATG7, 1 nM",115 ± 6.5
same,relative cell number,"sgRNA knockout: sgATG7, 10 nM",100 ± 18
same,relative cell number,"sgRNA knockout: sgATG7, 100 nM",80 ± 2.5
same,relative cell number,[4],98.3 ± 1.7
same,relative cell number,"sgRNA knockout: sgERN1, 1 nM",87.1 ± 2.1
same,relative cell number,"sgRNA knockout: sgERN1, 10 nM",93 ± 18
same,relative cell number,"sgRNA knockout: sgERN1, 100 nM",101 ± 11
same,relative cell number,[5],111 ± 31
same,relative cell number,"sgRNA knockout: sgHSF1, 1 nM",99 ± 1.5
same,relative cell number,"sgRNA knockout: sgHSF1, 10 nM",92.5 ± 5.7
same,relative cell number,"sgRNA knockout: sgHSF1, 100 nM",94.1 ± 14
same,relative cell number,[6],97 ± 6.8
same,relative cell number,"sgRNA knockout: sgHSF2, 1 nM",103 ± 10
same,relative cell number,"sgRNA knockout: sgHSF2, 10 nM",90 ± 13
same,relative cell number,"sgRNA knockout: sgHSF2, 100 nM",94.4 ± 9.8
same,relative cell number,[7],101 ± 1.5
same,relative cell number,"sgRNA knockout: sgKEAP1, 1 nM",99.3 ± 15
same,relative cell number,"sgRNA knockout: sgKEAP1, 10 nM",96.19 ± 0.33
same,relative cell number,[8],109 ± 21
same,relative cell number,[9],96.8 ± 12
same,relative cell number,"sgRNA knockout: sgNFE2L2, 1 nM",115 ± 17
same,relative cell number,[10],88.5 ± 24
same,relative cell number,[11],89.6 ± 25
same,relative cell number,[12],113 ± 1.3
same,relative cell number,"sgRNA knockout: sgSLC35F2, 1 nM",90.2 ± 18
same,relative cell number,[13],104 ± 7.9
same,relative cell number,[14],92.36 ± 0.79
same,relative cell number,[15],103 ± 21
same,relative cell number,"sgRNA knockout: sgXBP1, 1 nM",101 ± 4.1
same,relative cell number,"sgRNA knockout: sgXBP1, 10 nM",107 ± 19
same,relative cell number,"sgRNA knockout: sgXBP1, 100 nM",111 ± 18
same,relative cell number,[16],101 ± 17

# In a second layout: entries from further up.
smiles | measurement | setting | value
COc1cc(C(=O)N2CCC(N3CCN(C)CC3)CC2)ccc1Nc1ncc2c(n1)N(C)c1ccccc1C(=O)N2C [LRRK2IN1] | relative cell number | [13] | 108 ± 18
same | relative cell number | sgRNA knockout: sgSLC35F2, 10000 nM | 46.8 ± 13
N#Cc1ccc(C(c2ccc(C#N)cc2)n2cncn2)cc1 [Letrozole] | relative cell number | sgRNA knockout: sgATF3, 100 nM | 94.2 ± 10
same | relative cell number | [2] | 94.2 ± 18
same | relative cell number | [5] | 111 ± 31
